Source: patent publication US20160159861A1 (priority 2013, published 2016)
For some of these results: End groups of sequences in plain letters are not given here.

Tests used:
[1] = general procedure: Fmoc solid-phase peptide synthesis; Rink amide resin (NovaSyn TGR resin preferred for Intavis); HOBT, HBTU, HCTU; conditions: whole synthesis, Method A, scale of the general procedure 5 μmol
[2] = general procedure: Fmoc solid-phase peptide synthesis; Rink amide resin; HOBT, HBTU, HCTU; conditions: whole synthesis, scale 5 μmol

Substance | final purity (method not given) [1] [%] | other results
DVFNSSEkRRSADNFI | 87 | 
DVFRSSEkRRSADNFI | 82 | 
DVHRSSEkRRSADIFI | 88 | 
PEkRRSADIFP | 93.4 | 
PK(PkRRSADIFP)RRSADIFP | 97 | 
PTVFRSPSEkRRSADIFI | 84.9 | 
Pal-DVFQSEkRRSADQFI-amide |  | isolated mass [2]: 2.7 mg; final purity (method not given) ([1]; run 1): 80.7%; final purity (method not given) ([1]; run 2): 71%
Pal-DVFQSSEkRRSADQFI-amide |  | isolated mass [2]: 3 mg; final purity (method not given) ([1]; run 1): 83.2%; final purity (method not given) ([1]; run 2): 72%
Pal-DVFRSSEkRRSADQFI-amide |  | isolated mass [2]: 3.8 mg; final purity (method not given) ([1]; run 1): 83.8%; final purity (method not given) ([1]; run 2): 70%
Pal-DVHRSSEkRRSADQFI-amide |  | isolated mass [2]: 2 mg; final purity (method not given) ([1]; run 1): 70%; final purity (method not given) ([1]; run 2): 96%
Pal-PkRRSADIFIP-amide |  | isolated mass [2]: 2 mg; final purity (method not given) ([1]; run 1): 70.5%; final purity (method not given) ([1]; run 2): 71%
Pal-TVFQSSEkRRSADFI-amide | 70 | isolated mass [2]: 2 mg
Pal-TVFRSSE(d-Orn)RRSADIFI-amide |  | isolated mass [2]: 2.2 mg; final purity (method not given) ([1]; run 1): 92.4%; final purity (method not given) ([1]; run 2): 92%
TPVFRSSPEkRRSADIFI | 82 | 
TVD(N-Me-Arg)SSEkRRSADIFI | 71 | 
TVDRSSEkRRSAD(p-CH2NH2-Phe)FI | 92 | 
TVDRSSEkRRSAD(p-fluoro-Phe)FI | 78 | 
TVDRSSKEkRRSADIFI | 70 | 

Substance | final purity (method not given) [1] [%] | other results
TVDRSSQEkRRSADIFI | 85.4 | 
TVDRSSREkRRESADIFI | 80 | 
TVF(N-Me-Arg)SSEkRRSADIFI | 70 | 
TVFQSEkRRSADFI | 77 | 
TVFRSEkRRSADQFI | 70 | 
TVFRSPSEkRRPSADIF | 84 | 
TVFRSSEPkRRSADIFI | 77 | 
TVFRSSEPkRRSADIFP | 75 | 
TVFRSSEaRRSADIFI | 89 | 
TVFRSSEkRRPSADIFP | 75 | 
TVFRSSEkRRSAD(Bip)FI | 94 | 
TVFRSSEkRRSADNFI | 84 | 
TVFRSSPEkRRSADIFI | 82 | 
TVFRSSPEkRRSADIFP | 89 | 
TVFRSSPEkRRSPADIF | 84 | 
TVKRSSEkRRSADIFI | 72 | 
TVPFRSSEPkRRSADIFI | 74 | 
pTVFRSpSEkRRSADIF | 88 | 
